{"source": "the supplement of paper PMC4604168 (melanoma cell lines)", "note": "Some of the results follow. Many values rest on one well or one pass, so single values are uncertain.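 The apoptosis fraction was the count of cleaved-PARP antibody-stained nuclei relative to all DNA-stained nuclei, imaged in 1,536-well plates. Screening doses were set so most cells survived, and baseline and induced cleaved-PARP levels vary greatly across cell lines.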"}
{"tested_on": "UACC62", "experiment": "cleaved PARP positive nuclei fraction relative to DMSO control; melanoma cells; higher = more apoptosis", "conditions": "library dose: low library concentration; 72 h", "units": {"cleaved PARP positive nuclei fraction": "%"}}
{"smiles": "CC(=O)c1c(C)c2cnc(Nc3ccc(N4CCNCC4)cn3)nc2n(C2CCCC2)c1=O", "note": "[palbociclib] + Nc1cccc2c1CN(C1CCC(=O)NC1=O)C2=O [lenalidomide] (first compound 0.04 µM, partner dose 1 µM)", "cleaved PARP positive nuclei fraction": 160}
{"smiles": "CC(=O)c1c(C)c2cnc(Nc3ccc(N4CCNCC4)cn3)nc2n(C2CCCC2)c1=O", "note": "[palbociclib] + COc1ccc(Cl)c(Nc2nc3ccccc3nc2NS(=O)(=O)c2cccc(NC(=O)C(C)(C)N)c2)c1 [XL147] (first compound 0.04 µM, partner dose 0.8 µM)", "cleaved PARP positive nuclei fraction": 127}
{"smiles": "CC(=O)c1c(C)c2cnc(Nc3ccc(N4CCNCC4)cn3)nc2n(C2CCCC2)c1=O", "note": "[palbociclib] + Cc1nc(Nc2ncc(C(=O)Nc3c(C)cccc3Cl)s2)cc(N2CCN(CCO)CC2)n1 [dasatanib] (first compound 0.04 µM, partner dose 0.004 µM)", "cleaved PARP positive nuclei fraction": 342}
{"smiles": "C=CCNC1=C2C[C@@H](C)C[C@H](OC)[C@H](O)[C@@H](C)/C=C(\\C)[C@H](OC(N)=O)[C@@H](OC)/C=C\\C=C(/C)C(=O)NC(=CC1=O)C2=O", "note": "[Tanespimycin] + COc1ccc(Cl)c(Nc2nc3ccccc3nc2NS(=O)(=O)c2cccc(NC(=O)C(C)(C)N)c2)c1 [XL147] (first compound 0.002 µM, partner dose 0.8 µM)", "cleaved PARP positive nuclei fraction": 57.3}
{"smiles": "OCc1c[nH]c2ccccc12", "note": "[Indole-3-carbinol] + C#Cc1cccc(Nc2ncnc3cc(OCCOC)c(OCCOC)cc23)c1 [erlotinib] (first compound 0.8 µM, partner dose 0.8 µM)", "cleaved PARP positive nuclei fraction": 143}
